The supplement of paper PMC12823440, “Inhibitors supercharge kinase turnover through native proteolytic circuits” (Nature, 2025)
Structures can show the parent of a compound that is named as a salt. Some of the results follow. Hit calls seldom repeat between salt and free forms of one compound.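 In K562 cells expressing nanoluciferase-fused kinases, luminescence was recorded at 4 h intervals between 2 and 18 h, normalized as percent of control with DMSO at 100% and a positive control at 0%. A significant (2 sigma) signal drop marks a time point as decreased. The authors' rule for a hit is not shown and takes in more than the number of time points.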

Amino acid sequences for entries named in this document (tags omitted). A change or cut given only in a name is not applied to a line headed by its entry.
UniProt P00519, whole entry: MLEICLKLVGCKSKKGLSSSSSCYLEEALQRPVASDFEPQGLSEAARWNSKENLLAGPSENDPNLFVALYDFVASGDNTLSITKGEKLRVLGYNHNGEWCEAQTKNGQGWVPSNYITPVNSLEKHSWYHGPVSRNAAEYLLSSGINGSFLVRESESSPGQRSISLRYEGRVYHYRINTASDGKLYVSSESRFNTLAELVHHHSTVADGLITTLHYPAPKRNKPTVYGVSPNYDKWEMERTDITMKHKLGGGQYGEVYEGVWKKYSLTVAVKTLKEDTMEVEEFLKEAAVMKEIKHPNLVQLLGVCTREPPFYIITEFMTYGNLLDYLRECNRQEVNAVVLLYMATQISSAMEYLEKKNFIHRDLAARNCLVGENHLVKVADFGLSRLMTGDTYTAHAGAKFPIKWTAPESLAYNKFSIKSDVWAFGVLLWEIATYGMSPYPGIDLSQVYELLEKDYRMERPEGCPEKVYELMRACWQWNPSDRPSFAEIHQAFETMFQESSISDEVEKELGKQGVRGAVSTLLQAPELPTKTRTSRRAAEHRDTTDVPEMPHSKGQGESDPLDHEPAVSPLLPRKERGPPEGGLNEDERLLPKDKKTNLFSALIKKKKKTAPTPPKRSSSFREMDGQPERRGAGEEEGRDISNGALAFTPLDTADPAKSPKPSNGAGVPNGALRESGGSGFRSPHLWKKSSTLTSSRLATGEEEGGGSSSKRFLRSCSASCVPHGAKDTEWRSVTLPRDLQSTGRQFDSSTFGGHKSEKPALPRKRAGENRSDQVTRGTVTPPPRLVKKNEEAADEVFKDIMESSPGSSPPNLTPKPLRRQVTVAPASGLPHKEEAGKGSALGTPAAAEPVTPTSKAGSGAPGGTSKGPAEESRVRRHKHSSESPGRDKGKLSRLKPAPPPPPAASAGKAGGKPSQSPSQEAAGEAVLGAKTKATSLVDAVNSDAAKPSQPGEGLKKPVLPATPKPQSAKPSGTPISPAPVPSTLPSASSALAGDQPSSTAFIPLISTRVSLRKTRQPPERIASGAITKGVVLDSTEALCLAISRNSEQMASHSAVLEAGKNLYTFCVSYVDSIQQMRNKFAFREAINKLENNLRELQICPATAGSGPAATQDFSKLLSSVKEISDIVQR
UniProt P10398: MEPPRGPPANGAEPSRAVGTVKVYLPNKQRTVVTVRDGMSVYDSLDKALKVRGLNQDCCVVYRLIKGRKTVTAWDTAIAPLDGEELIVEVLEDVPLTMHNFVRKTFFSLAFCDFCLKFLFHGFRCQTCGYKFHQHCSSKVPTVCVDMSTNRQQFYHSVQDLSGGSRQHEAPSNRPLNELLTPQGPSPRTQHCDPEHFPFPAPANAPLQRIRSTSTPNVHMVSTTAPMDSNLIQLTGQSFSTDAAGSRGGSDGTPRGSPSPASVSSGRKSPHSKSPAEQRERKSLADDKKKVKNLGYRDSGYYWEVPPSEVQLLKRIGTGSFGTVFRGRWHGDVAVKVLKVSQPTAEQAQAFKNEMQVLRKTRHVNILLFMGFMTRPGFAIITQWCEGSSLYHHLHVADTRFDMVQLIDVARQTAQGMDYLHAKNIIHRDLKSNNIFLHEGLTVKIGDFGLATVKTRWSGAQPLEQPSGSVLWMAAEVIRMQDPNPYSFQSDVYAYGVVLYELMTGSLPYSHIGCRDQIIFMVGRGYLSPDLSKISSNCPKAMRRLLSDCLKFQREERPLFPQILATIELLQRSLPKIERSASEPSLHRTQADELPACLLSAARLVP
UniProt O14965: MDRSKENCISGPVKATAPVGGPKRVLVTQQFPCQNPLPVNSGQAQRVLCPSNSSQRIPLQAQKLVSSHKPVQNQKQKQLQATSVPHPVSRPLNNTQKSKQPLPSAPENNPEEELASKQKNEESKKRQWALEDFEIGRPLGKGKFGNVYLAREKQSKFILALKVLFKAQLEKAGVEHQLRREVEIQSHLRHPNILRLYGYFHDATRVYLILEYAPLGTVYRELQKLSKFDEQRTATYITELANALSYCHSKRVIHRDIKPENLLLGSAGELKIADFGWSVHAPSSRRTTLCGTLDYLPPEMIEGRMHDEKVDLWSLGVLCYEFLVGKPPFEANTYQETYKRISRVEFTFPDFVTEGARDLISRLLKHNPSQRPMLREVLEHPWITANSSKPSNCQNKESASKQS
UniProt Q96GD4, whole entry: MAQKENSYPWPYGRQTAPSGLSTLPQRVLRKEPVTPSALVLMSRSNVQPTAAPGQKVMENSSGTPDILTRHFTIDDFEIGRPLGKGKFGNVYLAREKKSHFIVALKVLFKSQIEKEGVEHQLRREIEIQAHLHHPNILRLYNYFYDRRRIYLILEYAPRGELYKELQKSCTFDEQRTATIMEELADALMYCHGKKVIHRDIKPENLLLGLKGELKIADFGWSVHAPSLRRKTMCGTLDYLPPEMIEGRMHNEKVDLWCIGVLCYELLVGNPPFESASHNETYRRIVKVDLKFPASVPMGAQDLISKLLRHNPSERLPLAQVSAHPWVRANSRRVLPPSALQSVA
UniProt Q9UQB9: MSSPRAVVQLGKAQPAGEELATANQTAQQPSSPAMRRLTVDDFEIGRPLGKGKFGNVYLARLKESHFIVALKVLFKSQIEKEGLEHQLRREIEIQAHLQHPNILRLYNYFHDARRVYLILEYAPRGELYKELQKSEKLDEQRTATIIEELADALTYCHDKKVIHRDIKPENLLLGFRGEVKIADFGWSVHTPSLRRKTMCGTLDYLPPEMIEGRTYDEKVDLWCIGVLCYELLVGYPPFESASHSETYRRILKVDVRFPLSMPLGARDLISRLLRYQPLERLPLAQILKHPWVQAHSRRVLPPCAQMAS
UniProt P51451: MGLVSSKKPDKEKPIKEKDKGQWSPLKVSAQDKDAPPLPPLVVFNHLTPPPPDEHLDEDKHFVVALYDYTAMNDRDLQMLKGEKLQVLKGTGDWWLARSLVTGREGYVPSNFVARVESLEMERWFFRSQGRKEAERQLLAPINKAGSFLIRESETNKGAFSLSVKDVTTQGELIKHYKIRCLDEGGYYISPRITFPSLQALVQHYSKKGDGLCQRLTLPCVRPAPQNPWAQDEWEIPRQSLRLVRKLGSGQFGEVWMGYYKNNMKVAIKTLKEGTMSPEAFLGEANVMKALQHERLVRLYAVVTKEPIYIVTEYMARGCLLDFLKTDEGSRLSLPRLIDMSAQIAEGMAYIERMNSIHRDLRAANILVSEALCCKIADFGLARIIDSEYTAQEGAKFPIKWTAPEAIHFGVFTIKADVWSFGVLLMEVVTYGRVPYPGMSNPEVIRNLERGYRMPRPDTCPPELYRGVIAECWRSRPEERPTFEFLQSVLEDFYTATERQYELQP
UniProt P51813: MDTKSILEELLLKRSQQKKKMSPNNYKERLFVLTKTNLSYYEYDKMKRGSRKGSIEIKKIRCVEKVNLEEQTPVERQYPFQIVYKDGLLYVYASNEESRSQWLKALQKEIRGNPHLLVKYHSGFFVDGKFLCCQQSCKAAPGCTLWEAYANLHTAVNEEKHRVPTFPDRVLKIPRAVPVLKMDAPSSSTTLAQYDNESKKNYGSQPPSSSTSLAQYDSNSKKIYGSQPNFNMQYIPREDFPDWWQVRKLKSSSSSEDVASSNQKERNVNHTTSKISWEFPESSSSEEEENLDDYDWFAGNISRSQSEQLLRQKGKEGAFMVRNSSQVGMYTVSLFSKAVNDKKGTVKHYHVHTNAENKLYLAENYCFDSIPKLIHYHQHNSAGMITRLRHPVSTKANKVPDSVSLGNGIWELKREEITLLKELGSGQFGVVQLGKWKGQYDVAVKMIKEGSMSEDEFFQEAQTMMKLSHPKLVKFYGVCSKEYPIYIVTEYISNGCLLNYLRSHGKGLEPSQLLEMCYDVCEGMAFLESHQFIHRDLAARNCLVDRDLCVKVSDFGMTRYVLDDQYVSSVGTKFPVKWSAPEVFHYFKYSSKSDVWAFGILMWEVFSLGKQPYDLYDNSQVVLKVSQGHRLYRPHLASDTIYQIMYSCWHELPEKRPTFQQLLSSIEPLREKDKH
UniProt P15056, whole entry, looked up: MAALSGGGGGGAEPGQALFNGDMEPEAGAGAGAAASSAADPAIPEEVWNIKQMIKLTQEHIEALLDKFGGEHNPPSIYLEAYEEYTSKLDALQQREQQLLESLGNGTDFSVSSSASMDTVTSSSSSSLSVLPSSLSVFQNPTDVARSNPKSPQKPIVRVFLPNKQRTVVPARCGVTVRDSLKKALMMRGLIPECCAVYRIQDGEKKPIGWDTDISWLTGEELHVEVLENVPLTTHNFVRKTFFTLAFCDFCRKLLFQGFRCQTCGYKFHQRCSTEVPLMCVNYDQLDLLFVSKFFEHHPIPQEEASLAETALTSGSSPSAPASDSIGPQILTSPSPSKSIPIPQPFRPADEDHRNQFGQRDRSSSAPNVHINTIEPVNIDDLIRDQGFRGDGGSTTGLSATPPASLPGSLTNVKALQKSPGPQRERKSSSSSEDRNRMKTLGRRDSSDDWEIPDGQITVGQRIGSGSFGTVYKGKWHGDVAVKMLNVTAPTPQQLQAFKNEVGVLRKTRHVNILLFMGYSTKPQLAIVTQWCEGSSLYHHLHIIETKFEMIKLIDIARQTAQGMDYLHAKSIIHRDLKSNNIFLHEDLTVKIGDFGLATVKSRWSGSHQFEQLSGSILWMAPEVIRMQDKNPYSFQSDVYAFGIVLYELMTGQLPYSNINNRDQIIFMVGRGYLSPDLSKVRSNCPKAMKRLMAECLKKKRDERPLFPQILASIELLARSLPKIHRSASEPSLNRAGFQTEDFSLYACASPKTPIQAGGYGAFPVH
UniProt Q13555: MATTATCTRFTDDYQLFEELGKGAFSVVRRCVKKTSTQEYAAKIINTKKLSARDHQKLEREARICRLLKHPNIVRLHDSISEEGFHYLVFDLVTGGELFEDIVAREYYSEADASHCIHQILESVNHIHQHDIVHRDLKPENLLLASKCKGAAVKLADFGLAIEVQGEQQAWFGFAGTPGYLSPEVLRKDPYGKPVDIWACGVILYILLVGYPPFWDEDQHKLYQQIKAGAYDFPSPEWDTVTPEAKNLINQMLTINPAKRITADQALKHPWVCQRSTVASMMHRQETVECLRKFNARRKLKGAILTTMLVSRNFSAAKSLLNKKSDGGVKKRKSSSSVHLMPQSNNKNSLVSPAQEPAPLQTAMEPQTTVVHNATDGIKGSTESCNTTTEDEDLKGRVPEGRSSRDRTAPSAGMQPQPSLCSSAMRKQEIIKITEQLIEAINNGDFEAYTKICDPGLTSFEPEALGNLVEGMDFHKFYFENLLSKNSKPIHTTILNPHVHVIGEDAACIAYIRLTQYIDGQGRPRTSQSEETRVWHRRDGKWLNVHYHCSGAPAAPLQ
UniProt Q15131: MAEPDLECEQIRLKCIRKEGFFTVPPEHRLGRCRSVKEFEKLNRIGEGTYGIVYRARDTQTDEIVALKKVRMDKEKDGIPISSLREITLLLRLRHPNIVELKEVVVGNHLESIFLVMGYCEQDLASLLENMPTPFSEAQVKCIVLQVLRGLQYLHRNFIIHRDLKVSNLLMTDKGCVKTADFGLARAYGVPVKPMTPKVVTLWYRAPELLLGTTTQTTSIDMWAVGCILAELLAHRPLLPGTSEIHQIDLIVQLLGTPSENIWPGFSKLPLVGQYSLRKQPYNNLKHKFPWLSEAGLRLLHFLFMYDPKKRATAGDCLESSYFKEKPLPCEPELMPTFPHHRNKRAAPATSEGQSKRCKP
UniProt P11802: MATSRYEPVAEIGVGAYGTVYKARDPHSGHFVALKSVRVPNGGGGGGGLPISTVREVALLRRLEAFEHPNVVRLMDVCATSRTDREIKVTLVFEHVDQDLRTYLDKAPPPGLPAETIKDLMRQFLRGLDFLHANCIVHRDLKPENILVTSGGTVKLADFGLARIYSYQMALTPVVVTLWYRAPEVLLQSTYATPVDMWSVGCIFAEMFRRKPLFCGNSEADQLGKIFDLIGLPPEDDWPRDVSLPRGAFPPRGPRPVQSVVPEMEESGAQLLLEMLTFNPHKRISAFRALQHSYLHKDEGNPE
UniProt Q00535, whole entry, looked up: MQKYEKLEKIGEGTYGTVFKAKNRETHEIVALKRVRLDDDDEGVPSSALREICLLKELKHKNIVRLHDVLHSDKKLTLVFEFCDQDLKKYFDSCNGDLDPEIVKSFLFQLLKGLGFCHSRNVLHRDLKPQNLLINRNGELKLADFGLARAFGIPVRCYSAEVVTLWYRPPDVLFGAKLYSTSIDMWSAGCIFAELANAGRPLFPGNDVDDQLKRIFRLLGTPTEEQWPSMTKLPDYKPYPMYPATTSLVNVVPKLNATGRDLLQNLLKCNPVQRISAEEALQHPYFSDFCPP
UniProt Q00534, whole entry: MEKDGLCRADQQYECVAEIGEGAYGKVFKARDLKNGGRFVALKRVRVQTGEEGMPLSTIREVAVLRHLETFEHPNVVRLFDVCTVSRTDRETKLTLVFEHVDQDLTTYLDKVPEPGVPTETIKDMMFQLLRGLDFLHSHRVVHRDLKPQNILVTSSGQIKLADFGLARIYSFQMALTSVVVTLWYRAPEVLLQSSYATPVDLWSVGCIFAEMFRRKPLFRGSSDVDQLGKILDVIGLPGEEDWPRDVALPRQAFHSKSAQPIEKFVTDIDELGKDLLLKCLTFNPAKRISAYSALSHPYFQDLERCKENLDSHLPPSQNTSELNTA

Key:
Test in all cases: kinase-Nluc reporter destabilization hit call (1 = scored as downregulated) (binary); higher = compound decreases kinase abundance
Details in all cases: K562, 2-18 h
ABL1 = ABL1 (UniProt P00519)
AKT1 = AKT1 (UniProt P31749)
ALK = ALK (UniProt Q9UM73)
ARAF = ARAF (UniProt P10398)
AURKA = AURKA (UniProt O14965)
AURKB = AURKB (UniProt Q96GD4)
AURKC = AURKC (UniProt Q9UQB9)
BLK = BLK (UniProt P51451)
BMX = BMX (UniProt P51813)
BRAF = BRAF (UniProt P15056)
BRAF_V600E = test system: BRAF_V600E
BTK = BTK (UniProt Q06187)
CAMK2A = CAMK2A (UniProt Q9UQM7)
CAMK2G = CAMK2G (UniProt Q13555)
CDK10 = CDK10 (UniProt Q15131)
CDK2 = CDK2 (UniProt P24941)
CDK3 = CDK3 (UniProt Q00526)
CDK4 = CDK4 (UniProt P11802)
CDK5 = CDK5 (UniProt Q00535)
CDK6 = CDK6 (UniProt Q00534)

Measured: kinase-Nluc reporter destabilization hit call

C=CC(=O)N1CCN(c2ncnc3c(F)c(-c4c(O)cccc4F)c(Cl)cc23)CC1
inactive: ABL1; 2.5 µM 0 | ABL1; 10 µM 0 | AKT1; 2.5 µM 0 | AKT1; 10 µM 0 | ALK; 2.5 µM 0 | ALK; 10 µM 0 | ARAF; 2.5 µM 0 | ARAF; 10 µM 0 | AURKA; 2.5 µM 0 | AURKA; 10 µM 0 | AURKB; 2.5 µM 0 | AURKB; 10 µM 0 | AURKC; 2.5 µM 0 | AURKC; 10 µM 0 | BLK; 2.5 µM 0 | BLK; 10 µM 0 | BMX; 2.5 µM 0 | BMX; 10 µM 0 | BRAF; 2.5 µM 0 | BRAF; 10 µM 0 | BRAF_V600E; 2.5 µM 0 | BRAF_V600E; 10 µM 0 | BTK; 2.5 µM 0 | BTK; 10 µM 0 | CAMK2A; 2.5 µM 0 | CAMK2A; 10 µM 0 | CAMK2G; 2.5 µM 0 | CAMK2G; 10 µM 0 | CDK10; 2.5 µM 0 | CDK10; 10 µM 0 | CDK2; 2.5 µM 0 | CDK2; 10 µM 0 | CDK3; 2.5 µM 0 | CDK3; 10 µM 0 | CDK4; 2.5 µM 0 | CDK4; 10 µM 0 | CDK5; 2.5 µM 0 | CDK5; 10 µM 0 | CDK6; 2.5 µM 0 | CDK6; 10 µM 0

O=C(O)c1ccc2c(c1)nc(Nc1cccc(Cl)c1)c1ccncc12 [Silmitasertib (sodium salt)]
inactive: AKT1; 10 µM 0 | ALK; 10 µM 0 | ARAF; 10 µM 0 | AURKA; 10 µM 0 | AURKB; 10 µM 0 | AURKC; 10 µM 0 | BLK; 10 µM 0 | BMX; 10 µM 0 | BRAF; 10 µM 0 | BRAF_V600E; 10 µM 0 | BTK; 10 µM 0 | CAMK2A; 10 µM 0 | CAMK2G; 10 µM 0 | CDK10; 10 µM 0 | CDK2; 10 µM 0 | CDK3; 10 µM 0 | CDK4; 10 µM 0 | CDK5; 10 µM 0 | CDK6; 10 µM 0
active: ABL1; 10 µM 1

COc1cc2c(Oc3ccc4[nH]c(C)cc4c3F)ncnc2cc1OCCCN1CCCC1 [Cediranib]
inactive: ABL1; 2.5 µM 0 | AKT1; 2.5 µM 0 | ALK; 2.5 µM 0 | ARAF; 2.5 µM 0 | AURKA; 2.5 µM 0 | AURKB; 2.5 µM 0 | AURKC; 2.5 µM 0 | BLK; 2.5 µM 0 | BMX; 2.5 µM 0 | BRAF; 2.5 µM 0 | BRAF_V600E; 2.5 µM 0 | BTK; 2.5 µM 0 | CAMK2A; 2.5 µM 0 | CAMK2G; 2.5 µM 0 | CDK10; 2.5 µM 0 | CDK2; 2.5 µM 0 | CDK3; 2.5 µM 0 | CDK4; 2.5 µM 0 | CDK5; 2.5 µM 0 | CDK6; 2.5 µM 0

O=C(Nc1cnn2ccc(N3CCC[C@@H]3c3cc(F)ccc3F)nc12)N1CC[C@H](O)C1 [Larotrectinib sulfate]
inactive: ABL1; 10 µM 0 | AKT1; 10 µM 0 | ALK; 10 µM 0 | ARAF; 10 µM 0 | AURKA; 10 µM 0 | AURKB; 10 µM 0 | AURKC; 10 µM 0 | BLK; 10 µM 0 | BMX; 10 µM 0 | BRAF; 10 µM 0 | BRAF_V600E; 10 µM 0 | BTK; 10 µM 0 | CAMK2A; 10 µM 0 | CAMK2G; 10 µM 0 | CDK10; 10 µM 0 | CDK2; 10 µM 0 | CDK3; 10 µM 0 | CDK4; 10 µM 0 | CDK5; 10 µM 0 | CDK6; 10 µM 0

C#Cc1cccc(Nc2ncnc3cc(OCCOC)c(OCCO)cc23)c1 [Desmethyl Erlotinib (hydrochloride)]
inactive: ABL1; 10 µM 0 | AKT1; 10 µM 0 | ALK; 10 µM 0 | ARAF; 10 µM 0 | AURKA; 10 µM 0 | AURKB; 10 µM 0 | AURKC; 10 µM 0 | BLK; 10 µM 0 | BRAF; 10 µM 0 | BRAF_V600E; 10 µM 0 | BTK; 10 µM 0 | CAMK2A; 10 µM 0 | CAMK2G; 10 µM 0 | CDK10; 10 µM 0 | CDK2; 10 µM 0 | CDK3; 10 µM 0 | CDK4; 10 µM 0 | CDK5; 10 µM 0 | CDK6; 10 µM 0
active: BMX; 10 µM 1

Cc1nc2ccc(-n3c(-c4nonc4N)nc4cnccc43)cc2[nH]1
inactive: ABL1; 10 µM 0 | AKT1; 10 µM 0 | ALK; 10 µM 0 | ARAF; 10 µM 0 | AURKA; 10 µM 0 | AURKB; 10 µM 0 | AURKC; 10 µM 0 | BLK; 10 µM 0 | BMX; 10 µM 0 | BRAF; 10 µM 0 | BRAF_V600E; 10 µM 0 | BTK; 10 µM 0 | CAMK2A; 10 µM 0 | CAMK2G; 10 µM 0 | CDK10; 10 µM 0 | CDK2; 10 µM 0 | CDK3; 10 µM 0 | CDK4; 10 µM 0 | CDK5; 10 µM 0 | CDK6; 10 µM 0

CC(C)Nc1cc(-c2c[nH]c(C(=O)N[C@H](CO)c3cccc(Cl)c3)c2)c(Cl)cn1 [Ulixertinib]
inactive: ABL1; 10 µM 0 | AKT1; 10 µM 0 | ALK; 10 µM 0 | ARAF; 10 µM 0 | AURKA; 10 µM 0 | AURKB; 10 µM 0 | AURKC; 10 µM 0 | BLK; 10 µM 0 | BMX; 10 µM 0 | BRAF; 10 µM 0 | BRAF_V600E; 10 µM 0 | BTK; 10 µM 0 | CAMK2A; 10 µM 0 | CAMK2G; 10 µM 0 | CDK10; 10 µM 0 | CDK2; 10 µM 0 | CDK3; 10 µM 0 | CDK4; 10 µM 0 | CDK5; 10 µM 0 | CDK6; 10 µM 0

COc1ccc(S(=O)(=O)Nc2ccccc2CN(C)C/C=C/c2ccc(Cl)cc2)cc1 [KN-92 (phosphate)]
inactive: ABL1; 2.5 µM 0 | AKT1; 2.5 µM 0 | ALK; 2.5 µM 0 | ARAF; 2.5 µM 0 | AURKA; 2.5 µM 0 | AURKB; 2.5 µM 0 | AURKC; 2.5 µM 0 | BLK; 2.5 µM 0 | BMX; 2.5 µM 0 | BRAF; 2.5 µM 0 | BRAF_V600E; 2.5 µM 0 | BTK; 2.5 µM 0 | CAMK2A; 2.5 µM 0 | CAMK2G; 2.5 µM 0 | CDK10; 2.5 µM 0 | CDK2; 2.5 µM 0 | CDK3; 2.5 µM 0 | CDK4; 2.5 µM 0 | CDK5; 2.5 µM 0 | CDK6; 2.5 µM 0

Random excerpt: 2 entries already listed, in no set order.
O=C(O)c1ccc2c(c1)nc(Nc1cccc(Cl)c1)c1ccncc12 [Silmitasertib (sodium salt)]
inactive: AKT1; 10 µM 0 | ALK; 10 µM 0 | ARAF; 10 µM 0 | AURKA; 10 µM 0 | AURKB; 10 µM 0 | AURKC; 10 µM 0 | BLK; 10 µM 0 | BMX; 10 µM 0 | BRAF; 10 µM 0 | BRAF_V600E; 10 µM 0 | BTK; 10 µM 0 | CAMK2A; 10 µM 0 | CAMK2G; 10 µM 0 | CDK10; 10 µM 0 | CDK2; 10 µM 0 | CDK3; 10 µM 0 | CDK4; 10 µM 0 | CDK5; 10 µM 0 | CDK6; 10 µM 0
active: ABL1; 10 µM 1

CC(C)Nc1cc(-c2c[nH]c(C(=O)N[C@H](CO)c3cccc(Cl)c3)c2)c(Cl)cn1 [Ulixertinib]
inactive: ABL1; 10 µM 0 | AKT1; 10 µM 0 | ALK; 10 µM 0 | ARAF; 10 µM 0 | AURKA; 10 µM 0 | AURKB; 10 µM 0 | AURKC; 10 µM 0 | BLK; 10 µM 0 | BMX; 10 µM 0 | BRAF; 10 µM 0 | BRAF_V600E; 10 µM 0 | BTK; 10 µM 0 | CAMK2A; 10 µM 0 | CAMK2G; 10 µM 0 | CDK10; 10 µM 0 | CDK2; 10 µM 0 | CDK3; 10 µM 0 | CDK4; 10 µM 0 | CDK5; 10 µM 0 | CDK6; 10 µM 0

Carrying on:

CCN(CC)CC(=O)Nc1c(C)cccc1C [Lidocaine (hydrochloride)]
inactive: ABL1; 10 µM 0 | AKT1; 10 µM 0 | ALK; 10 µM 0 | ARAF; 10 µM 0 | AURKA; 10 µM 0 | AURKB; 10 µM 0 | AURKC; 10 µM 0 | BLK; 10 µM 0 | BMX; 10 µM 0 | BRAF; 10 µM 0 | BRAF_V600E; 10 µM 0 | BTK; 10 µM 0 | CAMK2A; 10 µM 0 | CAMK2G; 10 µM 0 | CDK10; 10 µM 0 | CDK2; 10 µM 0 | CDK3; 10 µM 0 | CDK4; 10 µM 0 | CDK5; 10 µM 0 | CDK6; 10 µM 0
